# Results published in PubChem BioAssay AID2685 (National Center for Advancing Translational Sciences (NCATS), 2010).
# Hit rate of the full screen: of about 320,000 compounds, about 2,100 (0.66%) were called active. Inconclusive results, whose numbers are uncertain, are shown with a selection of clear calls. Calls come from the whole dose curve; as a rule, active = well fitted inhibition curve with a large enough effect in the signal ratio, with a control signal flat (not every such curve was filed as active); inconclusive = small, poorly fitted or top-dose-only effect, or effect the other way, or a change in a side signal; inactive = flat fitted curve, though single readings scatter; the % refers to the signal ratio. Where the call is inconclusive, the potency comes from a doubtful curve fit.
# Test: qHTS Assay for Lipid Storage Modulators in Drosophila S3 Cells
# Settings: BODIPY lipid droplet fluorescence, 18-24 h, cells fed with added oleic acid; lipid storage change, negative = inhibition: at 46.1 µM (top of the series) unless noted
# Method in brief: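 Drosophila S3 cells got compounds at several concentrations plus oleic acid (400 uM solution). Laser-scanning cytometry with 488 nm excitation read lipid droplets at 500-530 nm and cells at 575-640 nm. Percent activity was relative to 20 uM Triacsin C.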
# % is set by controls: 0 for no effect and ±100 for the full control effect; potency is the fitted concentration of half-maximal effect.
Structure (SMILES),Potency,"lipid storage change, negative = inhibition"
COc1ccc(CCNC(=O)Cn2ccc3cc(S(=O)(=O)N4CCCC4)ccc32)cc1OC,"inconclusive: 1.46 µM [activator, single point]",–
COc1cccc(C2=CC(=O)C[C@H](c3ccc(Cl)cc3)C2)c1OC,–,inconclusive: -23.5%
CCOc1ccc(-n2cnnn2)cc1S(=O)(=O)NCCc1ccc(OC)c(OC)c1,–,inactive
Cc1ccc2nc(N(CCCN(C)C)C(=O)CN3C(=O)c4ccccc4C3=O)sc2c1,–,inconclusive: 5.8%
Cc1ccccc1-c1cccc(CN2CCN(C)C(CCO)C2)c1 (stereo not given),–,inconclusive: 4.57%
COc1ccc(-c2cn3cccnc3n2)cc1NC(=O)C(C)Oc1ccccc1 (stereo not given),–,inconclusive: -33.3%
COc1ccccc1-c1cc(C(=O)O)c2c(=O)n(C)c(=O)n(Cc3ccccc3)c2n1,–,inconclusive: 137%
CC(C)CC(=O)NC(c1ccccc1)c1c(O)ccc2ccccc12 (stereo not given),–,inactive
COc1cccc(/C=N/NC(=O)c2ccc(CN3c4cccc5cccc(c45)S3(=O)=O)cc2)c1,"inconclusive: 0.092 µM [rising, full curve, poor fit]",–
Cc1ccc(C(=O)N(Cc2cccs2)C2CCS(=O)(=O)C2)cc1 (stereo not given),"inconclusive: 3.66 µM [falling, single point]",–
Cc1ccc(-n2ncc3c(=O)n(CC(=O)N(C)C)cnc32)cc1C,–,inconclusive: -1.94%
O=C(NNC(=O)c1cc(OCC(F)(F)F)ccc1OCC(F)(F)F)c1cccc(C(F)(F)F)c1,–,inconclusive: 39.3%
Cc1cc(C)nc(SCc2nnc(SCC(=O)Nc3ccc(C)c(C)c3)o2)n1,–,inconclusive: 23.7%
CCOC(=O)[C@@H]1[C@H]2COc3ccccc3[C@H]2N2C(=O)N(c3ccc(OC)cc3)C(=O)[C@]12C,"inconclusive: 29.1 µM [falling, single point]",–
O=C(CCNC(=O)c1ccco1)Nc1ccccc1,–,inconclusive: -16.7%
O=C(O)COc1ccccc1C1C2C(=O)N(c3ccc(F)cc3)C(=O)C2ON1c1ccccc1 (stereo not given),"inconclusive: 29.1 µM [falling, single point]",–
C=CCOc1c2ccc(C(=O)N(CC)c3ccc(OC)cc3)cc2nn1C,–,inconclusive: 38.2%
Cc1cccc2c1N(C(=O)CN1C(=O)c3ccccc3C1=O)C(C)(C)c1ssc(=S)c1-2,"inconclusive: 3.66 µM [cytotoxic, full curve]",–
CCc1ccc2c(c1)/C(=C/C(=O)c1cccs1)C(=O)N2,"inconclusive: 29.1 µM [falling, single point]",–
O=C(NNC(=O)C1CC=CCC1)c1ccccc1Cl (stereo not given),"inconclusive: 3.66 µM [activator, full curve]",–
Cc1onc(-c2c(F)cccc2Cl)c1C(=O)ONC(=O)c1ccco1,–,inconclusive: -10.9%
Cc1ccc(N2CC(C(=O)NCCN3CCOCC3)CC2=O)cc1 (stereo not given),–,inconclusive: 33.5%
Cc1ccc2nc(NC(=O)C3CCCN(S(=O)(=O)c4cccnc4)C3)sc2c1 (stereo not given),"inconclusive: 14.6 µM [falling, single point]",–
C#CCOCCOCCOCCNc1nc(N2CCN(C(=O)CCCCCCCCCCNC(=O)[C@H]([C@@H](C)CC)n3cc(CCCCN=C(N)N)nn3)CC2)nc(N2CCN(C(=O)CCCCCCCCCCNC(=O)[C@H](CCCN=C(N)N)n3cc(C[C@@H](C)CC)nn3)CC2)n1,"inconclusive: 16.4 µM [cytotoxic, single point]",–

Structure (SMILES),Potency,"lipid storage change, negative = inhibition"
CCCCc1c(O)nc2sc3cc(OC)ccc3n2c1=O,active: 10.3 µM,–
O=[N+]([O-])c1ccc(-c2nc(Nc3cccc(O)c3)c3ccccc3n2)cc1,"inconclusive: 23.1 µM [falling, single point]",–
CCOC(=O)N1CCC(N(CCN(C)C)C(=S)Nc2ccccc2OC)CC1,–,inactive
Cc1ccc(C2=Nc3c(ccc4ccccc34)C(c3ccncc3)=NN2)cc1,"inconclusive: 20.6 µM [cytotoxic, partial curve]",–
CCC(=O)Nc1cccc(-c2nc3ccccc3c(=O)o2)c1,"inconclusive: 0.291 µM [rising, partial curve, poor fit]",–
Cc1cccc(-c2noc(CN(C(=O)CCc3ccccc3)C(C)C)n2)c1,"inconclusive: 25.9 µM [activator, single point]",–
COc1ccc2[nH]c(=O)c(CN(C(=O)C3CCCO3)c3ccc(C)c(C)c3)cc2c1 (stereo not given),–,inconclusive: -2.62%
CCC(=O)N1N=C(c2ccccc2)CC1c1ccc([N+](=O)[O-])cc1 (stereo not given),–,inconclusive: 14.7%
CCCN1C(=O)c2cc(C(=O)Nc3ccccc3CC)ccc2C1O (stereo not given),–,inconclusive: -4.74%
COc1ccc(Cc2noc(-c3ccccc3)n2)cc1OC,–,inconclusive: 35.6%
O=C(CCCCCn1c(=S)[nH]c2ccc(N3CCOCC3)cc2c1=O)NCc1ccccc1Cl,–,inconclusive: 3.73%
Cc1ccc(NC(=O)COC(=O)C2CC3CCCC(C2)C3=O)c([N+](=O)[O-])c1 (stereo not given),–,inconclusive: 10.7%
CC(=O)Nc1ccc(S(=O)(=O)N2CCC(C(=O)O)CC2)cc1,"inconclusive: 29.1 µM [rising, single point]",–
COc1ccccc1CCn1c(N)c(C#N)c2nc3ccccc3nc21,"inconclusive: 2.91 µM [activator, partial curve]",–
C=CCS(=O)(=O)N1CCCC(Cc2ccccc2C)(C(=O)OCC)C1 (stereo not given),–,inconclusive: 0.429%
Cc1cc(NC(=O)c2ccc(Cl)cc2)no1,–,inconclusive: -0.587%
COc1ccc(/C=C/c2c(-c3ccc(OC)cc3)sc3ccc(N4CCOCC4)cc23)cc1,"inconclusive: 6.51 µM [activator, single point]",–
CCOC(=O)CN1C(=O)C(Sc2n[nH]c(-c3ccc(O)cc3)n2)CCc2ccccc21 (stereo not given),"inconclusive: 14.6 µM [activator, partial curve]",–
O=C(/C=C/c1ccccc1)OCCN=C1NS(=O)(=O)c2ccccc21,"inconclusive: 6.51 µM [falling, single point]",–
CCOc1ccc2nc(-c3ccccc3)nc(SCC(=O)OC)c2c1,–,inconclusive: 45%
Cc1ccccc1OCC(=O)Nc1nnc(-c2ccco2)s1,"inconclusive: 0.0731 µM [falling, full curve, poor fit]",–
COc1ccc(/C=C2\N=C(SC)N(c3ccccc3OC)C2=O)cc1,–,inconclusive: -0.0886%
O=C(N/N=C/c1cccnc1)c1cccc(NC(=O)c2ccc(Cl)cc2)c1,"inconclusive: 6.51 µM [activator, single point]",–
COc1cc(C2C(C#N)=C(N)OC3=C2C(=O)CC(C)(C)C3)ccc1OCCN1CCOCC1 (stereo not given),–,inconclusive: 12.7%

Structure (SMILES),Potency,"lipid storage change, negative = inhibition"
COc1ccc(-n2nc(C(=O)NCC(=O)N3CCN(Cc4ccccc4)CC3)c3ccccc3c2=O)cc1,active: 0.651 µM,–
CCn1c(SCC(=O)N2CCC(C)CC2)nnc1-c1ccc(S(=O)(=O)N2CCN(C)CC2)cc1,–,inconclusive: 13.8%
COc1ccc(CCCc2nnc(SCC(=O)Nc3cccc(C)c3)o2)cc1,–,inconclusive: 7.14%
COc1cccc(OC(=O)CSc2nnc(-c3ccccc3Br)o2)c1,"inconclusive: 11.6 µM [falling, partial curve]",–
Cc1ccc2nc(-c3ccc(NC(=O)C(C)N4C(=O)c5ccccc5C4=O)cc3)sc2c1 (stereo not given),"inconclusive: 29.1 µM [falling, single point]",–
CCOc1ccc(C(=O)N[C@H](C(=O)O)C(C)C)cc1,"inconclusive: 0.0046 µM [falling, full curve, poor fit]",–
NC(=O)CCCn1c(C(=O)c2cc(Cl)c(N)c(Cl)c2)c2ccc(C(F)(F)F)cc2[n+]1[O-],–,inconclusive: 5.89%
Cc1nn(-c2ccc(Cl)c(Cl)c2Cl)c(=O)c2ccccc12,–,inconclusive: 75.2%
CN(CCN1CCOCC1)C(=O)CC1C(=O)NCCN1Cc1ccccc1C(F)(F)F (stereo not given),–,inconclusive: 284%
COc1ccc(CNC(=O)C2CCCN(S(=O)(=O)c3ccc(Br)s3)C2)cc1 (stereo not given),–,inconclusive: 111%
CCCCN(C)CCN1C(=O)C2C(C(=O)Nc3ccc(OC)cc3)C3C=CC2(O3)C1C(=O)NC1CCCCC1 (stereo not given),"inconclusive: 0.58 µM [falling, single point]",–
O=C(CN1CCCCCC1)Nc1c(Cl)cc(Cl)cc1Cl,–,inconclusive: -10.7%
COc1ccc(NC(=O)CN(Cc2ccco2)Cc2ccco2)cc1S(=O)(=O)N1CCCCC1,–,inconclusive: -5.35%
O=C(COC(=O)CCc1ccccc1)NC12CC3CC(CC(C3)C1)C2,"inconclusive: 3.26 µM [falling, full curve, poor fit]",–
COc1ccccc1C(=O)NCCC(=O)N1CCN(S(=O)(=O)c2cccc(Cl)c2)CC1,–,inconclusive: -28.5%
COc1ccc(N2CCN(C(C)C(=O)N3CC(C)OC(C)C3)CC2)cc1 (stereo not given),–,inconclusive: -17.6%
CCc1ccc(NC(=O)COc2ccc(Br)cn2)cc1,–,inconclusive: 9.24%
CNS(=O)(=O)c1cccc(C(=O)OCc2cc(=O)n3cc(Br)ccc3n2)c1,–,inconclusive: -20.6%
COc1ccc(C2=NS(=O)(=O)N(C)C(C(=O)NCc3cccs3)=C2)cc1OC,"inconclusive: 32.6 µM [falling, single point]",–
Cc1ccc(C(=O)c2cc3ccccc3o2)cc1C,"inconclusive: 18.4 µM [rising, single point]",–
CSc1nnc(C2CCCN(CC(=O)Nc3ccccc3N3CCOCC3)C2)n1C(C)C (stereo not given),–,inconclusive: -28.6%
CCc1ccccc1NC(=O)NCCN1CCCCC1,"inconclusive: 32.6 µM [activator, single point]",–

# Some of the entries above, set out differently.
Structure (SMILES)	Potency	lipid storage change, negative = inhibition
COc1ccccc1C(=O)NCCC(=O)N1CCN(S(=O)(=O)c2cccc(Cl)c2)CC1	–	inconclusive: -28.5%
COc1ccc(N2CCN(C(C)C(=O)N3CC(C)OC(C)C3)CC2)cc1 (stereo not given)	–	inconclusive: -17.6%
CCc1ccc(NC(=O)COc2ccc(Br)cn2)cc1	–	inconclusive: 9.24%
